# Measurements published in the supplement of paper PMC8728848.
# The other results are listed elsewhere or left out.
# Key:
# Experiment in all cases: glycan array binding signal (z-score within array); higher = stronger binding
# Conditions in all cases: glycan notation: IUPAC condensed, linker removed
# [1] = biological target: Gal(a1-3)Gal(b1-3)GlcNAc
# Method in brief: (§1)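 Columns mapping to the same glycan were averaged after glycan names were converted to IUPAC-condensed notation. The data come from 3228 arrays in the Consortium for Functional Glycomics database, limited to those with an available protein sequence. Binding is reported as a within-array Z-score averaged across arrays of one protein sequence and across linkers.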
# [2] = biological target: Gal(a1-3)Gal(b1-3)GlcNAc(b1-2)Man
# Method in brief: as §1
# [3] = biological target: Gal(a1-3)Gal(b1-3)GlcNAc(b1-2)Man(a1-3)[Gal(a1-3)Gal(b1-3)GlcNAc(b1-2)Man(a1-6)]Man(b1-4)GlcNAc(b1-4)GlcNAc
# Method in brief: as §1
# [4] = biological target: Gal(a1-3)Gal(b1-3)GlcNAc(b1-3)GalNAc
# Method in brief: as §1
# [5] = biological target: Gal(a1-3)Gal(b1-3)GlcNAc(b1-6)GalNAc
# Method in brief: as §1
# [6] = biological target: Gal(a1-3)Gal(b1-3)[Fuc(a1-4)]GlcNAc(b1-2)Man(a1-3)[Gal(a1-3)Gal(b1-3)[Fuc(a1-4)]GlcNAc(b1-2)Man(a1-6)]Man(b1-4)GlcNAc(b1-4)GlcNAc
# Method in brief: as §1
# [7] = biological target: Gal(a1-3)Gal(b1-4)Glc
# Method in brief: as §1
# [8] = biological target: Gal(a1-3)Gal(b1-4)GlcNAc
# Method in brief: as §1
# [9] = biological target: Gal(a1-3)Gal(b1-4)GlcNAc(b1-2)Man
# Method in brief: as §1
# [10] = biological target: Gal(a1-3)Gal(b1-4)GlcNAc(b1-2)Man(a1-3)[Gal(a1-3)Gal(b1-4)GlcNAc(b1-2)Man(a1-6)]Man(b1-4)GlcNAc(b1-4)GlcNAc
# Method in brief: as §1
# [11] = biological target: Gal(a1-3)Gal(b1-4)GlcNAc(b1-3)GalNAc
# Method in brief: as §1
# [12] = biological target: Gal(a1-3)Gal(b1-4)GlcNAc(b1-6)GalNAc
# Method in brief: as §1
# [13] = biological target: Gal(a1-3)Gal(b1-4)[Fuc(a1-3)]GlcNAc
# Method in brief: as §1
# [14] = biological target: Gal(a1-3)Gal(b1-4)[Fuc(a1-3)]GlcNAc(b1-2)Man(a1-3)[Gal(a1-3)Gal(b1-4)[Fuc(a1-3)]GlcNAc(b1-2)Man(a1-6)]Man(b1-4)GlcNAc(b1-4)GlcNAc
# Method in brief: as §1
# [15] = biological target: Gal(a1-3)GalNAc
# Method in brief: as §1
# [16] = biological target: Gal(a1-3)[Gal(a1-4)]Gal(b1-4)GlcNAc
# Method in brief: as §1
# [17] = biological target: Gal(a1-4)Gal(b1-3)GlcNAc(b1-2)Man(a1-3)[Gal(a1-4)Gal(b1-3)GlcNAc(b1-2)Man(a1-6)]Man(b1-4)GlcNAc(b1-4)GlcNAc
# Method in brief: as §1
# [18] = biological target: Gal(a1-4)Gal(b1-4)Glc
# Method in brief: as §1
# [19] = biological target: Gal(a1-4)Gal(b1-4)GlcNAc
# Method in brief: as §1
# [20] = biological target: Gal(a1-4)Gal(b1-4)GlcNAc(b1-2)Man(a1-3)[Gal(a1-4)Gal(b1-4)GlcNAc(b1-2)Man(a1-6)]Man(b1-4)GlcNAc(b1-4)GlcNAc
# Method in brief: as §1
# [21] = biological target: Gal(a1-4)Gal(b1-4)GlcNAc(b1-3)Gal(b1-4)Glc
# Method in brief: as §1
# [22] = biological target: Gal(a1-4)GlcNAc
# Method in brief: as §1
# [23] = biological target: Gal(a1-6)Glc
# Method in brief: as §1
# [24] = biological target: Gal(b1-2)Gal
# Method in brief: as §1
# [25] = biological target: Gal(b1-3)Gal
# Method in brief: as §1
# [26] = biological target: Gal(b1-3)Gal(b1-4)GlcNAc
# Method in brief: as §1
# [27] = biological target: Gal(b1-3)GalNAc
# Method in brief: as §1
# [28] = biological target: Gal(b1-3)GalNAc(a1-3)[Fuc(a1-2)]Gal(b1-4)Glc
# Method in brief: as §1
# [29] = biological target: Gal(b1-3)GalNAc(a1-3)[Fuc(a1-2)]Gal(b1-4)GlcNAc
# Method in brief: as §1
# [30] = biological target: Gal(b1-3)GalNAc(b1-3)Gal
# Method in brief: as §1
# [31] = biological target: Gal(b1-3)GalNAc(b1-3)Gal(a1-4)Gal(b1-4)Glc
# Method in brief: as §1
# [32] = biological target: Gal(b1-3)GalNAc(b1-4)Gal(b1-4)Glc
# Method in brief: as §1
# [33] = biological target: Gal(b1-3)GalNAc(b1-4)[Neu5Ac(a2-3)]Gal(b1-4)Glc
# Method in brief: as §1
# [34] = biological target: Gal(b1-3)GlcNAc
# Method in brief: as §1
# [35] = biological target: Gal(b1-3)GlcNAc(a1-3)Gal(b1-4)GlcNAc
# Method in brief: as §1
# [36] = biological target: Gal(b1-3)GlcNAc(a1-6)Gal(b1-4)GlcNAc
# Method in brief: as §1
# [37] = biological target: Gal(b1-3)GlcNAc(b1-2)Man
# Method in brief: as §1
# [38] = biological target: Gal(b1-3)GlcNAc(b1-2)Man(a1-3)[Gal(b1-3)GlcNAc(b1-2)Man(a1-6)]Man(b1-4)GlcNAc(b1-4)GlcNAc
# Method in brief: as §1
binder,measurement,setting,value
PX9937I-bfa-538-26-538 (Bacteroides fragilis) (protein) DKLDLSPIDYYGSGSYWKTEAQATAYIDGIHKHLRDAAWQHTITFGELRGGRFITGASSDGMGVSNGDIILQNFDETHTGVSKFGDLFGRITNLNLFIARVTDATYLSDEMKNFYLGEVYGLRAFYYFDLYRIYGGVPLRLTADVVEGVIDPNKLYMARSTPKEVMTQIKSDLNKSMEYFGNMNDFDPYKRGKKVYWSKAATECLMGEVYLWTSKVTTGDDVANPADLTIAKTHLESVLNNYNLKMLDDFSQVFNAKNKANDEIIFAIRFLEGEATNSNGTFTYNVGTGSTKNRYQANGEVFGDALDIQNTGNQTYEYNKAVYQNFDDADTRKEATFIASYNKDGKTGELSLYGTHVRKNIGYVNAQGARVYCGDYIFYRLPWVYLTLAEIANMEGDNAAVAKYINLVRKRAYGNAWDETLYAYPETADFTTNELAILHEKDKEFIQEGQRWWDLRRMTLTKGGTPLVFCKEGSLLGDAPILNKSTEAHKLLWPIEKTMLNKDPALEQTPGYK,glycan array binding signal (z-score),[1],0.142
same,glycan array binding signal (z-score),[2],-0.156
same,glycan array binding signal (z-score),[3],0.317
same,glycan array binding signal (z-score),[4],-0.097
same,glycan array binding signal (z-score),[5],0.142
same,glycan array binding signal (z-score),[6],3.11
same,glycan array binding signal (z-score),[7],0.57
same,glycan array binding signal (z-score),[8],-0.994
same,glycan array binding signal (z-score),[9],-0.574
same,glycan array binding signal (z-score),[10],2.06
same,glycan array binding signal (z-score),[11],-1.27
same,glycan array binding signal (z-score),[12],-0.398
same,glycan array binding signal (z-score),[13],0.196
same,glycan array binding signal (z-score),[14],0.583
same,glycan array binding signal (z-score),[15],-0.393
same,glycan array binding signal (z-score),[16],-0.452
same,glycan array binding signal (z-score),[17],4.73
same,glycan array binding signal (z-score),[18],0.308
same,glycan array binding signal (z-score),[19],-0.8
same,glycan array binding signal (z-score),[20],-0.905
same,glycan array binding signal (z-score),[21],-0.212
same,glycan array binding signal (z-score),[22],0.511
same,glycan array binding signal (z-score),[23],0.008
same,glycan array binding signal (z-score),[24],1.2
same,glycan array binding signal (z-score),[25],0.342
same,glycan array binding signal (z-score),[26],0.649
same,glycan array binding signal (z-score),[27],0.242
same,glycan array binding signal (z-score),[28],-0.698
same,glycan array binding signal (z-score),[29],-0.45
same,glycan array binding signal (z-score),[30],-0.724
same,glycan array binding signal (z-score),[31],1.22
same,glycan array binding signal (z-score),[32],0.698
same,glycan array binding signal (z-score),[33],-0.928
same,glycan array binding signal (z-score),[34],-0.582
same,glycan array binding signal (z-score),[35],-0.328
same,glycan array binding signal (z-score),[36],-0.027
same,glycan array binding signal (z-score),[37],-0.996
same,glycan array binding signal (z-score),[38],0.667

# Rewritten bar-delimited: part of the list above
binder | measurement | setting | value
PX9937I-bfa-538-26-538 (Bacteroides fragilis) (protein) DKLDLSPIDYYGSGSYWKTEAQATAYIDGIHKHLRDAAWQHTITFGELRGGRFITGASSDGMGVSNGDIILQNFDETHTGVSKFGDLFGRITNLNLFIARVTDATYLSDEMKNFYLGEVYGLRAFYYFDLYRIYGGVPLRLTADVVEGVIDPNKLYMARSTPKEVMTQIKSDLNKSMEYFGNMNDFDPYKRGKKVYWSKAATECLMGEVYLWTSKVTTGDDVANPADLTIAKTHLESVLNNYNLKMLDDFSQVFNAKNKANDEIIFAIRFLEGEATNSNGTFTYNVGTGSTKNRYQANGEVFGDALDIQNTGNQTYEYNKAVYQNFDDADTRKEATFIASYNKDGKTGELSLYGTHVRKNIGYVNAQGARVYCGDYIFYRLPWVYLTLAEIANMEGDNAAVAKYINLVRKRAYGNAWDETLYAYPETADFTTNELAILHEKDKEFIQEGQRWWDLRRMTLTKGGTPLVFCKEGSLLGDAPILNKSTEAHKLLWPIEKTMLNKDPALEQTPGYK | glycan array binding signal (z-score) | [9] | -0.574
same | glycan array binding signal (z-score) | [30] | -0.724
same | glycan array binding signal (z-score) | [34] | -0.582
